Several values for one entry are separate records, joined by “and”; a condition that tells them apart may be missing. Equal values may be shown once. Hit rate of the full screen: of about 300,000 compounds, about 5,400 (1.8%) were called active. Inconclusive results, whose numbers are uncertain, are shown with a selection of clear calls. Calls follow the shape of the full dose curve; tested in HEK293 cells. A potency beside an inconclusive call is a rough fit, not a confirmed value.
Assay: qHTS for inhibitors of binding or entry into cells for Marburg Virus
Details: Marburg virus pseudotyped entry inhibition, cell reporter; activity change, negative = inhibition: at 37.8 µM (top of the series) unless noted
% is scaled to controls: 0 for no effect and ±100 for the full control effect; potency is read from the fitted curve at half-maximal effect.

| SMILES | Potency | activity change, negative = inhibition |
| --- | --- | --- |
| O=C(c1ccc(Cl)c(S(=O)(=O)N2CCCCC2)c1)N1CCN(c2ccccc2)CC1 | inconclusive: 7.94 µM [inhibitor, partial curve, poor fit] |  |
| CC(N)Cc1c[nH]c2ccc(O)cc12 (stereo not given) | inconclusive: 0.794 µM [inhibitor, single point] |  |
| Cc1ccccc1-c1noc(-c2ccc(N3CCCCC3)c([N+](=O)[O-])c2)n1 | inactive |  |
| COc1ccc(NC(c2nnc(-c3ccccc3)o2)c2ccccc2F)cc1Cl (stereo not given) | inconclusive: 7.94 µM [inhibitor, partial curve, poor fit] |  |
| COc1ccc(N2CCN(C(=O)c3ccccc3Br)CC2)c([N+](=O)[O-])c1 | inconclusive: 31.6 µM [inhibitor, partial curve, poor fit] |  |
| O=Cc1c[nH]c2ccc(C(=O)c3ccccc3)cc12 | inconclusive: 6.31 µM [inhibitor, single point] |  |
| Cc1c2cnn(CC(=O)NCc3ccc(F)cc3)c(=O)c2c(C)n1Cc1cccc(Cl)c1 | inconclusive: 1.58 µM [inhibitor, single point] |  |
| COc1ccsc1C(=O)N1CCN(Cc2ccc3c(c2)OCO3)CC1 | inconclusive: 10 µM [activator, partial curve, poor fit] |  |
| O=C(C[n+]1cc(-c2ccc(Cl)cc2)n2c1CCC2)N1c2ccccc2Sc2ccccc21 | inconclusive: 0.224 µM [inhibitor, full curve, poor fit] |  |
| Cc1ccc(C)c(S(=O)(=O)Nc2ccc(-n3cnnn3)cc2)c1 | inactive |  |
| CCOc1ccc(NC(=O)C(=O)NCCN2CCN(S(=O)(=O)c3ccc(C)cc3)CC2)cc1 | inconclusive: 3.16 µM [inhibitor, partial curve, poor fit] |  |
| CC1CCN(C(=O)c2ccc(NS(=O)(=O)c3ccc4[nH]c(=O)[nH]c4c3)cc2)CC1 | inactive |  |
| O=C(Cn1c(-c2ccccc2)c[n+]2ccsc12)c1ccc([N+](=O)[O-])cc1 | inconclusive: 29.1 µM [inhibitor, single point] |  |
| CCOc1ccc(S(=O)(=O)N2CCC(C(=O)N3CCN(c4ccccc4F)CC3)CC2)cc1C | inconclusive: 35.5 µM [inhibitor, single point] |  |
| CC(C)c1ccc(CN(C(=O)c2cccs2)C2CCS(=O)(=O)C2)cc1 (stereo not given) | inactive |  |
| CCCn1nnc(NC(=O)c2ccc3c(c2)OCO3)n1 | inconclusive: 35.5 µM [inhibitor, single point] |  |
| CCCCN(CC)CCCNC(=O)CS(=O)(=O)Cc1nc(-c2ccc(C)cc2)oc1C | inactive |  |
| FC(F)(F)c1cccc(NC(=S)NCc2ccccn2)c1 | inactive |  |
| CC1CC(C)CN(CCCNC(=O)c2cn(C)c3ccc(S(=O)(=O)N4CCCC4)cc3c2=O)C1 (stereo not given) | inactive |  |
| COc1cccc(NC(=O)Cn2c(=O)n(CCCC(=O)NCc3ccco3)c(=O)c3ccccc32)c1 | inconclusive: 3.16 µM [activator, full curve] |  |
| COc1cccc(C(=O)Nc2ccccc2C(=O)N2CCCC2)c1 | inactive |  |
| Cc1ccc(NC(=O)CCC(=O)NNC(=O)c2ccco2)c(C)c1 | inactive |  |
| CCN(Cc1ccc(OC)c(F)c1)C(=O)c1cc2ccccc2o1 | inactive |  |
| CC1=C(Cl)C2=NS(=O)(=O)CCN2C=C1Cl | inactive |  |

| SMILES | Potency | activity change, negative = inhibition |
| --- | --- | --- |
| COc1cc(OC)c(Nc2nc3ccccc3c3nncn23)cc1Cl | inactive |  |
| Clc1ccccc1NC1=NCCCS1 | inactive |  |
| CCOc1ccc(-n2c(N)c(C(=O)NCc3ccco3)c3nc4ccccc4nc32)cc1 | inconclusive: 0.501 µM [activator, single point] |  |
| O=C(Nc1ccc(N2CCOCC2)c(Cl)c1)C1CCCCC1 | inconclusive: 23.1 µM [activator, partial curve] |  |
| Cc1ccc(-c2nc3nc(C)cc(N4CCN(c5cccc(C)c5C)CC4)n3n2)cc1 | inactive |  |
| C[C@@H]1CC[C@H]2C(=O)O[C@@H](Cc3ccccc3)CN2[C@@H]1c1ccc(Br)cc1 | inactive |  |
| COc1ccc(CCNc2oc(/C=C/c3cc(OC)c(OC)c(OC)c3)nc2C#N)cc1OC | inconclusive: 3.98 µM [inhibitor, partial curve, poor fit] |  |
| CCOC(=O)c1ccc(N2C(=O)c3n[nH]c(-c4cccs4)c3C2c2ccc(OCC)cc2)cc1 (stereo not given) | active: 12.6 µM |  |
| CCCOc1ccc(/C=N/NC(=O)c2ccc(Cn3cc([N+](=O)[O-])cn3)o2)cc1 | inactive |  |
| O=C(NC(NC(=S)N1CCOCC1)C(Cl)(Cl)Cl)c1cccc2ccccc12 (stereo not given) | inconclusive: 22.4 µM [inhibitor, single point] |  |
| S=C(Nc1cccc2ccccc12)NN1CCCCCC1 | inconclusive: 1.26 µM [activator, single point] |  |
| OC(C#CCN1CCCCC1)(c1ccccc1)c1ccccc1 | inconclusive: 1 µM [inhibitor, full curve, poor fit] |  |
| N#Cc1ccc(C(=O)Nc2ccc([N+](=O)[O-])cc2)c(F)c1 | inactive |  |
| COc1ccc(NS(=O)(=O)c2cc(NC(=O)c3ccc(Cl)cc3)ccc2N2CCOCC2)cc1 | active: 1.12 µM |  |
| COC(=O)C1=C(O)/C(=C\c2ccc(O)c(OC)c2)N=C1C | inconclusive: 0.146 µM [activator, single point] |  |
| CCOc1ccc(NC(=O)CC2C(=O)N(c3ccc(F)cc3)C(=O)N2Cc2ccc(OC)c(OC)c2)cc1 (stereo not given) | inactive |  |
| CCC[C@H]1CN(c2ccc(OC)cc2)C(=O)[C@H]1CC(=O)NC | inconclusive: 3.53 µM [inhibitor, partial curve, poor fit] |  |
| COC(=O)CSC1=C(C#N)C(c2ccsc2)CC(=O)N1 (stereo not given) | inconclusive: 4.47 µM [inhibitor, partial curve, poor fit] |  |
| CCOC(=O)N1CCN(C(=O)C(=O)c2cn(CC(=O)N3CCCCCC3)c3ccccc23)CC1 | inactive |  |
| Cc1ccc(Sc2c(C)nn(-c3ccccc3)c2OC(=O)C(C)(C)C)cc1 | inactive |  |
| CC(=O)NC1(C(F)(F)F)C(=O)Nc2c1c(=O)n(C)c(=O)n2C (stereo not given) | inconclusive: 0.1 µM [activator, full curve, poor fit] |  |
| CCn1c(C(=O)NCc2ccc(F)cc2)cc2oc3ccccc3c21 | active: 3.55 µM |  |
| COCCNc1c2c(nc3c(-c4ccccc4)c(C)nn13)CCCC2 | inconclusive: 29.1 µM [inhibitor, single point] |  |
| CN(C)CCNC(=O)C(=O)NCC(c1ccc2c(c1)OCO2)N1CCN(c2ccc(F)cc2)CC1 (stereo not given) | inconclusive: 35.5 µM [inhibitor, partial curve, poor fit] |  |

| SMILES | Potency | activity change, negative = inhibition |
| --- | --- | --- |
| Cn1c(=O)oc2cc(S(=O)(=O)NC(Cc3ccccc3)C(=O)Nc3ccc(F)cc3)ccc21 (stereo not given) | inactive |  |
| COc1ccc(C2CC(=O)c3cc(OC)ccc3O2)cc1 (stereo not given) | inactive |  |
| CCOC(=O)c1c(NC(=O)C(C)Sc2cn(CCNC(=O)c3c(F)cccc3F)c3ccccc23)sc2c1CCC2 (stereo not given) | active: 7.94 µM |  |
| COc1ccccc1Nc1ncnc2c1cnn2-c1cccc(C)c1 | inactive |  |
| Cc1cc(/C=N/n2cnnc2)c(C)n1-c1ccccc1 | inactive |  |
| CCc1noc(C)c1C(=O)NNC(=O)c1ccccc1F | inconclusive: 11.2 µM [activator, partial curve] |  |
| COc1ccccc1C(=O)C1CCCN(Cc2ccc3c(c2)OCCO3)C1 (stereo not given) | inconclusive: 11.2 µM [inhibitor, partial curve, poor fit] |  |
| CCC(CC)c1nnc(NC(=O)c2ccc3ccccc3n2)s1 | inconclusive: 35.5 µM [inhibitor, single point] |  |
| COc1ccc2[nH]cc(CCNC(C)=O)c2c1 | inconclusive: 0.316 µM [inhibitor, full curve] |  |
| Cc1ccccc1NC(=O)c1ccccc1NC(=O)CCC(=O)O | inconclusive: 0.1 µM [activator, full curve, poor fit] |  |
| CC1(C)Cc2c(sc3c2c(N)nc(=S)n3Cc2ccc(Br)cc2)CO1 | inactive |  |
| O=C(NCc1ccc(Cl)c(Cl)c1)c1ccc2c(c1)OCO2 | inconclusive: 35.5 µM [inhibitor, single point] |  |
| Cc1cc(OCCCCCn2ccnc2)cc(C)c1Cl | inconclusive: 3.16 µM [inhibitor, partial curve, poor fit] |  |
| O=S(=O)(NCC(c1ccco1)N1CCN(c2ccccc2F)CC1)c1ccccc1 (stereo not given) | inconclusive: 20 µM [inhibitor, partial curve, poor fit] |  |
| COc1ccc(CC(=O)NCC2CCCN(Cc3cccc(C(F)(F)F)c3)C2)cc1 (stereo not given) | inconclusive: 35.5 µM [inhibitor, single point] |  |
| CN(N=O)c1cc(O)ccc1O | inconclusive: 29.1 µM [inhibitor, single point] and inconclusive: 10 µM [inhibitor, partial curve, poor fit] |  |
| O=[N+]([O-])c1cc2c(cc1/C=N/n1c(-c3ccccc3)n[nH]c1=S)OCO2 | inactive |  |
| O=S(=O)(NCc1cn2ccsc2n1)c1cccs1 | inconclusive: 14.1 µM [activator, single point] |  |
| C/C(=N\NC(=O)c1ccncc1)c1ccc(N(C)C)cc1 |  | inconclusive: 29.9% [activator] [at 46.1 µM] |
| CCN1CCN(S(=O)(=O)c2ccc(Cl)c(C(=O)N(C)Cc3ccco3)c2)CC1 | inactive |  |
| COc1ccc(C(=O)N[C@H](C(=O)Nc2nc3ccccc3[nH]2)C(C)C)cc1 | inconclusive: 7.94 µM [inhibitor, partial curve, poor fit] |  |
| O=C(CSc1nnc(CNc2ccc(F)cc2)n1Cc1ccco1)NC1CC1 | inconclusive: 35.5 µM [activator, single point] |  |

Some of the entries so far, field by field:
O=S(=O)(NCC(c1ccco1)N1CCN(c2ccccc2F)CC1)c1ccccc1 (stereo not given)
  Potency: inconclusive: 20 µM [inhibitor, partial curve, poor fit]
COc1ccc(CC(=O)NCC2CCCN(Cc3cccc(C(F)(F)F)c3)C2)cc1 (stereo not given)
  Potency: inconclusive: 35.5 µM [inhibitor, single point]
CN(N=O)c1cc(O)ccc1O
  Potency: inconclusive: 29.1 µM [inhibitor, single point] and inconclusive: 10 µM [inhibitor, partial curve, poor fit]
O=[N+]([O-])c1cc2c(cc1/C=N/n1c(-c3ccccc3)n[nH]c1=S)OCO2
  Potency: inactive
